Results reported in publication PMC11312917.
No constants are given. Whether binding was seen depends on the method and setting. Some results given as binding are weak or reduced against the parent protein; the word gives no strength. For some assays here: Tags and fused reporters may be left off the sequences shown.

Protein sequences, listed by entry. Tags and fused reporters are not part of them. Residues count along the entry.
UniProt P06241, residues 149-246: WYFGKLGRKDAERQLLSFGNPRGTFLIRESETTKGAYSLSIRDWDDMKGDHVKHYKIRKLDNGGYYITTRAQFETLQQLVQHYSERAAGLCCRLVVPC
UniProt P07947, residues 158-255: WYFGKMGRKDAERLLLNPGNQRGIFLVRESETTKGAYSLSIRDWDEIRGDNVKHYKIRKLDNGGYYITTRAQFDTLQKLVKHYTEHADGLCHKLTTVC
UniProt P00519, residues 127-217: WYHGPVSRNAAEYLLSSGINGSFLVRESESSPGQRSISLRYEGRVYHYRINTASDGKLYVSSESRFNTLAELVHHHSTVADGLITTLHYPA
UniProt O43639, residues 285-380: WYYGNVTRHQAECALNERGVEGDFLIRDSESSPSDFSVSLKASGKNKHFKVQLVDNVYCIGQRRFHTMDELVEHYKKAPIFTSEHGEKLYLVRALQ

Tests used:
Experiment in all cases: peptide or protein array; GST-fused domains (122 SH2; 70 PTB, PH, HYB, C2) arrayed on nitrocellulose-coated glass slides; probed with biotinylated peptides, detected with Cy3-labeled streptavidin; both purified
[1] = target: Fyn SH2 domain (GST fusion on the protein domain array) (UniProt P06241)
[2] = target: Yes SH2 domain (GST fusion on the protein domain array) (UniProt P07947)
[3] = target: Abl1 SH2 domain (GST fusion on the protein domain array) (UniProt P00519)
[4] = target: Nck2 domain (GST fusion on the protein domain array) (UniProt O43639)
[5] = target: T1, Abl2 SH2 domain (GST fusion on the protein domain array) (UniProt P42684)
T1 sequence: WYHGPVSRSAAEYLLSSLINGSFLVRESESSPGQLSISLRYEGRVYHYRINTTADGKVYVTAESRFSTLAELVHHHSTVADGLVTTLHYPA

Measured: binding

B1: phosphorylated Pdlim5 DUF-domain peptide IVERYTEF[pY]…-biotin (peptide)
peptide: IVERYTEFYHVPTHSDASK
modifications: phosphotyrosine at Y251 (ninth residue of the peptide); biotin at the C-terminus
binds: all assays above
